{"source": "PubChem BioAssay AID1259308 | NCATS, 2017", "screen": "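Genes whose loss raises luciferase production in HEK293 cells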 (primary screen)", "cell system": "human HEK293 embryonic kidney cells stably expressing firefly luciferase (HEK-CMV-Luc2-Hygro)", "reagent": "single siRNA against human genes, 0.8 pmol siRNA per well", "timing": "72 h", "detection": "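Luciferase light (ONE-Glo) measured on one replicate plate set and viability (CellTiter-Glo) on the other, scaled to a negative control siRNA, with robust z-scores and luciferase per cell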", "direction": "total luciferase, z-score: higher = more reporter protein produced", "active means": "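An siRNA counts as active if its total luciferase robust z-score exceeds 3; genes with two or more such siRNAs out of three were retested with fresh siRNAs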", "meaning of the calls": "active = raised luciferase; inactive = no rise", "note": "This is a random part of about 59,000 deposited reagents. About 1,510 of all reagents (2.6%) count as active. 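Calls use total luciferase alone and ignore viability, so some active siRNAs may act by altering cell number.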 Further read-outs or replicates are left out here."}
{"gene": "ARSL", "PubChem SID": "SID160720424", "total luciferase, z-score": 0.697, "Call": "inactive"}
{"gene": "ARSL", "PubChem SID": "SID160720433", "total luciferase, z-score": -0.477, "Call": "inactive"}
{"gene": "ARSL", "PubChem SID": "SID160720444", "total luciferase, z-score": -0.741, "Call": "inactive"}
{"gene": "NUFIP1", "PubChem SID": "SID160738169", "total luciferase, z-score": -0.0945, "Call": "inactive"}
{"gene": "NUFIP1", "PubChem SID": "SID160738170", "total luciferase, z-score": 0.2, "Call": "inactive"}
{"gene": "NUFIP1", "PubChem SID": "SID160738171", "total luciferase, z-score": -0.019, "Call": "inactive"}
{"gene": "RPS18P12", "PubChem SID": "SID160765831", "total luciferase, z-score": 0.387, "Call": "inactive"}
{"gene": "RPS18P12", "PubChem SID": "SID160765833", "total luciferase, z-score": 0.0553, "Call": "inactive"}
{"gene": "RPS18P12", "PubChem SID": "SID160765834", "total luciferase, z-score": -0.359, "Call": "inactive"}
{"gene": "LASP1", "PubChem SID": "SID160731196", "total luciferase, z-score": -0.424, "Call": "inactive"}
{"gene": "LASP1", "PubChem SID": "SID160776529", "total luciferase, z-score": -2.03, "Call": "inactive"}
{"gene": "LASP1", "PubChem SID": "SID160776530", "total luciferase, z-score": 0.527, "Call": "inactive"}
{"gene": "NOP58", "PubChem SID": "SID160741070", "total luciferase, z-score": 2.45, "Call": "inactive"}
{"gene": "NOP58", "PubChem SID": "SID160741072", "total luciferase, z-score": -1.97, "Call": "inactive"}
{"gene": "NOP58", "PubChem SID": "SID160741073", "total luciferase, z-score": -1.73, "Call": "inactive"}
{"gene": "BNIP3L", "PubChem SID": "SID160728632", "total luciferase, z-score": 1.09, "Call": "inactive"}
{"gene": "BNIP3L", "PubChem SID": "SID160728643", "total luciferase, z-score": 0.218, "Call": "inactive"}
{"gene": "BNIP3L", "PubChem SID": "SID160728654", "total luciferase, z-score": -0.542, "Call": "inactive"}
{"gene": "SERINC2", "PubChem SID": "SID160765017", "total luciferase, z-score": 1.95, "Call": "inactive"}
{"gene": "SERINC2", "PubChem SID": "SID160765018", "total luciferase, z-score": -1.22, "Call": "inactive"}
{"gene": "SERINC2", "PubChem SID": "SID160765021", "total luciferase, z-score": -1.04, "Call": "inactive"}
{"gene": "GOSR1", "PubChem SID": "SID160722419", "total luciferase, z-score": 1.21, "Call": "inactive"}
{"gene": "GOSR1", "PubChem SID": "SID160722421", "total luciferase, z-score": -2.28, "Call": "inactive"}
{"gene": "GOSR1", "PubChem SID": "SID160732197", "total luciferase, z-score": 0.451, "Call": "inactive"}
{"gene": "CEACAM5", "PubChem SID": "SID160741550", "total luciferase, z-score": -0.546, "Call": "inactive"}
{"gene": "CEACAM5", "PubChem SID": "SID160741561", "total luciferase, z-score": -0.676, "Call": "inactive"}
{"gene": "CEACAM5", "PubChem SID": "SID160741572", "total luciferase, z-score": 0.45, "Call": "inactive"}

A stretch taken from the entries so far:
{"gene": "BNIP3L", "PubChem SID": "SID160728654", "total luciferase, z-score": -0.542, "Call": "inactive"}
{"gene": "SERINC2", "PubChem SID": "SID160765017", "total luciferase, z-score": 1.95, "Call": "inactive"}
{"gene": "SERINC2", "PubChem SID": "SID160765018", "total luciferase, z-score": -1.22, "Call": "inactive"}
{"gene": "SERINC2", "PubChem SID": "SID160765021", "total luciferase, z-score": -1.04, "Call": "inactive"}
{"gene": "GOSR1", "PubChem SID": "SID160722419", "total luciferase, z-score": 1.21, "Call": "inactive"}
{"gene": "GOSR1", "PubChem SID": "SID160722421", "total luciferase, z-score": -2.28, "Call": "inactive"}

The listing continues:
{"gene": "NFKBIZ", "PubChem SID": "SID160747669", "total luciferase, z-score": -0.628, "Call": "inactive"}
{"gene": "NFKBIZ", "PubChem SID": "SID160747670", "total luciferase, z-score": 0.359, "Call": "inactive"}
{"gene": "NFKBIZ", "PubChem SID": "SID160747671", "total luciferase, z-score": -0.00615, "Call": "inactive"}
{"gene": "ETV7", "PubChem SID": "SID160740914", "total luciferase, z-score": -0.667, "Call": "inactive"}
{"gene": "ETV7", "PubChem SID": "SID160740915", "total luciferase, z-score": -1.22, "Call": "inactive"}
{"gene": "ETV7", "PubChem SID": "SID160740916", "total luciferase, z-score": -0.35, "Call": "inactive"}
{"gene": "AZI2", "PubChem SID": "SID160747679", "total luciferase, z-score": -1.46, "Call": "inactive"}
{"gene": "AZI2", "PubChem SID": "SID160747680", "total luciferase, z-score": -0.985, "Call": "inactive"}
{"gene": "AZI2", "PubChem SID": "SID160747681", "total luciferase, z-score": 1.25, "Call": "inactive"}
{"gene": "DNMT3B", "PubChem SID": "SID160755634", "total luciferase, z-score": -0.693, "Call": "inactive"}
{"gene": "DNMT3B", "PubChem SID": "SID160755645", "total luciferase, z-score": 1.27, "Call": "inactive"}
{"gene": "DNMT3B", "PubChem SID": "SID160755655", "total luciferase, z-score": -1.09, "Call": "inactive"}
{"gene": "LOC645263 (retired record)", "PubChem SID": "SID160769493", "total luciferase, z-score": -0.941, "Call": "inactive"}
{"gene": "LOC645263 (retired record)", "PubChem SID": "SID160769494", "total luciferase, z-score": 0.138, "Call": "inactive"}
{"gene": "LOC645263 (retired record)", "PubChem SID": "SID160769495", "total luciferase, z-score": -2.87, "Call": "inactive"}
